Values quoted from earlier work, collected in patent US10898451B2, “Methods of treating anti-NMDA receptor encephalitis with tramadol” (Board of Regents of the University of Texas System, priority 2018, dated 2021).

Tested on: NMDARs
Details: cited from earlier work

Question: Which “inhibition of NMDARs” value (K. Hara et al., Anesth. Analg. 100 (2005)) does the source give for COc1cccc(C2(O)CCCCC2CN(C)C)c1 (centres unmarked) [tramadol, 2-(dimethylaminomethyl)-1-(3-methoxyphenyl)cyclohexanol] here?
Answer: inhibit NMDARs at clinically relevant levels

Question: And the “mode of NMDAR inhibition” value (Seifi and Kitchen 2016, Hara et al. 2005)?
Answer: non-competitively inhibits NMDARs in a concentration dependent manner
